Test results from US8969555B2, “Bicyclic pyrimidine compounds” (Eli Lilly and Company, priority 2013, dated 2015).
Some of these results come from one statement about several compounds together.

Target: T1, recombinant human autotaxin (Homo sapiens, UniProt Q13822)
T1 construct: full length human autotaxin with a C-terminal His tag transfected into 293E cells; His tag (C); made in house; host or cells: 293E cells
Assay: Inhibition of Autotaxin as Measured by Choline Release
Assay type: biochemical
Settings: LPC 16:0 30 μM, 37° C. 1 hour, arithmetic mean

IC50, < 100 nM:
O=C(COCCc1cnn[nH]1)N1CCc2nc(NC3Cc4ccccc4C3)ncc2C1 [Example 1 and 1a, 1-[2-(2,3-dihydro-1H-inden-2-ylamino)-7,8-dihydropyrido[4,3-d]pyrimidin-6(5H)-yl]-2-[2-(1H-1,2,3-triazol-4-yl)ethoxy]ethanone]
O=C(CCOCc1cn[nH]n1)N1CCc2nc(NC3Cc4ccccc4C3)ncc2C1 [Example 5, 1-[2-(2,3-dihydro-1H-inden-2-ylamino)-7,8-dihydropyrido[4,3-d]pyrimidin-6(5H)-yl]-3-(1H-1,2,3-triazol-4-ylmethoxy)propan-1-one]
O=C(OCCCn1ccnc1)N1CCc2nc(NC3Cc4ccccc4C3)ncc2C1 [Example 7, 3-(1H-imidazol-1-yl)propyl 2-(2,3-dihydro-1H-inden-2-ylamino)-7,8-dihydropyrido[4,3-d]pyrimidine-6(5H)-carboxylate]
O=C(OCCCc1nn[nH]n1)N1CCc2nc(NC3Cc4ccccc4C3)ncc2C1 [Example 8, 3-(1H-tetrazol-5-yl)propyl 2-(2,3-dihydro-1H-inden-2-ylamino)-7,8-dihydropyrido[4,3-d]pyrimidine-6(5H)-carboxylate]
O=C(CNCCc1cn[nH]n1)N1CCc2nc(NC3Cc4ccccc4C3)ncc2C1 [Example 9, 1-[2-(2,3-dihydro-1H-inden-2-ylamino)-7,8-dihydropyrido[4,3-d]pyrimidin-6(5H)-yl]-2-{[2-(1H-1,2,3-triazol-4-yl)-ethyl]amino}ethanone]
O=C(COCCn1ccnc1)N1CCc2nc(NC3Cc4ccccc4C3)ncc2C1 [Example 10, 1-[2-(2,3-dihydro-1H-inden-2-ylamino)-7,8-dihydropyrido[4,3-d]pyrimidin-6(5H)-yl]-2-[2-(1H-imidazol-1-yl)ethoxy]ethanone]
O=C(OCCCc1cn[nH]n1)N1CCc2nc(NC3Cc4ccccc4C3)ncc2C1 [Example 11, 3-(1H-1,2,3-triazol-4-yl)propyl 2-(2,3-dihydro-1H-inden-2-ylamino)-7,8-dihydropyrido[4,3-d]pyrimidine-6(5H)-carboxylate]
O=C(CCCCc1nn[nH]n1)N1Cc2cnc(NC3Cc4ccccc4C3)nc2C1 [Example 12, 1-[2-(2,3-dihydro-1H-inden-2-ylamino)-5,7-dihydro-6H-pyrrolo[3,4-d]pyrimidin-6-yl]-5-(1H-tetrazol-5-yl)pentan-1-one]
O=C(OCCCn1ccnc1)N1Cc2cnc(NC3Cc4ccccc4C3)nc2C1 [Example 13, 3-(1H-imidazol-1-yl)propyl 2-(2,3-dihydro-1H-inden-2-ylamino)-5,7-dihydro-6H-pyrrolo[3,4-d]pyrimidine-6-carboxylate]
O=C(CNCCc1cn[nH]n1)N1Cc2cnc(NC3Cc4ccccc4C3)nc2C1 [Example 14, 1-[2-(2,3-dihydro-1H-inden-2-ylamino)-5,7-dihydro-6H-pyrrolo[3,4-d]pyrimidin-6-yl]-2-{[2-(1H-1,2,3-triazol-5-yl)-ethyl]amino}ethanone]
O=C(OCCCc1nn[nH]n1)N1Cc2cnc(NC3Cc4ccccc4C3)nc2C1 [Example 15, 3-(1H-tetrazol-5-yl)propyl 2-(2,3-dihydro-1H-inden-2-ylamino)-5,7-dihydro-6H-pyrrolo[3,4-d]pyrimidine-6-carboxylate]
